PubChem BioAssay AID1224827 | NIAID, 2016

- Purpose: 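Retest primary hits on a TNF reporter with six siRNAs per gene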 (follow-up of hits)
- System: RAW264.7 G9 mouse macrophage reporter clone
- Knock-down reagent: single siRNA against mouse genes, 100 nM siRNA
- Time to read-out: siRNA for 2 days, then LPS about 16 h
- Challenge: bacterial lipopolysaccharide (LPS), 10 ng/ml, cells fixed after overnight (about 16 h) stimulation
- Measured: 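Imaged nuclear TNF reporter intensity, background removed, scaled per plate and to non-targeting control wells, as z-scores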
- Direction: TNF reporter z-score, mean and TNF reporter z-score: higher = stronger Tnf promoter reporter signal; gene median z, three same-vendor siRNAs: higher = stronger Tnf reporter signal for the gene
- Active means: 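An siRNA is called active when its mean z-score over replicates is at least +2 or at most -2; control wells get no call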
Here is one part, drawn at random, of about 3,800 deposited reagents. In the full data, about 2,200 (57%) were called active. 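Active means a strong reporter change in either direction; calls are per siRNA, not per gene; qiagen siRNAs gave weaker effects.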 The numbers tell different reagents against one gene apart. Reagent sequences are not shown.

| TNF reporter z-score, mean | gene median z, three same-vendor siRNAs | TNF reporter z-score, repeat 1 | TNF reporter z-score, repeat 2 | call | gene symbol | siRNA no. |
| --- | --- | --- | --- | --- | --- | --- |
| -1.15 | -3.79 | -1.82 | -0.483 | inactive | Lrrn4 (leucine rich repeat neuronal 4) | 1 |
| -3.85 | -3.79 | -4.73 | -2.97 | active | Lrrn4 (leucine rich repeat neuronal 4) | 2 |
| -4.68 | -3.79 | -4.61 | -4.74 | active | Lrrn4 (leucine rich repeat neuronal 4) | 3 |
| 2.12 | -0.434 | 4.48 | -0.241 | active | Lrrn4 (leucine rich repeat neuronal 4) | 4 |
| 0.693 | -0.434 | 2.08 | -0.698 | inactive | Lrrn4 (leucine rich repeat neuronal 4) | 5 |
| -0.96 | -0.434 | -0.626 | -1.29 | inactive | Lrrn4 (leucine rich repeat neuronal 4) | 6 |
| -1.61 | -2.56 | -1.95 | -1.27 | inactive | Fads3 (fatty acid desaturase 3) | 1 |
| -2.6 | -2.56 | -2.69 | -2.52 | active | Fads3 (fatty acid desaturase 3) | 2 |
| -2.74 | -2.56 | -2.6 | -2.87 | active | Fads3 (fatty acid desaturase 3) | 3 |
| 5.83 | -0.931 | 9.03 | 2.62 | active | Fads3 (fatty acid desaturase 3) | 4 |
| -0.931 | -0.931 | -0.645 | -1.22 | inactive | Fads3 (fatty acid desaturase 3) | 5 |
| -2.14 | -0.931 | -1.33 | -2.96 | active | Fads3 (fatty acid desaturase 3) | 6 |
| 0.607 | -1.33 | 0.332 | 0.882 | inactive | Itpr1 (inositol 1,4,5-trisphosphate receptor 1) | 1 |
| -1.33 | -1.33 | -1.69 | -0.965 | inactive | Itpr1 (inositol 1,4,5-trisphosphate receptor 1) | 2 |
| -3.88 | -1.33 | -2.73 | -5.02 | active | Itpr1 (inositol 1,4,5-trisphosphate receptor 1) | 3 |
| -0.888 | -3.54 | 0.461 | -2.24 | inactive | Itpr1 (inositol 1,4,5-trisphosphate receptor 1) | 4 |
| -3.55 | -3.54 | -3.08 | -4.01 | active | Itpr1 (inositol 1,4,5-trisphosphate receptor 1) | 5 |
| -4.36 | -3.54 | -4 | -4.72 | active | Itpr1 (inositol 1,4,5-trisphosphate receptor 1) | 6 |
| 1.33 | -3.72 | 2.08 | 0.591 | inactive | Zfp825 (zinc finger protein 825) | 1 |
| -4.03 | -3.72 | -4.25 | -3.81 | active | Zfp825 (zinc finger protein 825) | 2 |
| -4.57 | -3.72 | -3.63 | -5.5 | active | Zfp825 (zinc finger protein 825) | 3 |
| 3.36 | 0.65 | 4.89 | 1.83 | active | Zfp825 (zinc finger protein 825) | 4 |
| 1.86 | 0.65 | 4.24 | -0.528 | inactive | Zfp825 (zinc finger protein 825) | 5 |
| -2.55 | 0.65 | -2.09 | -3.02 | active | Zfp825 (zinc finger protein 825) | 6 |

Reformatted: 4 of the entries above.
Lrrn4 (leucine rich repeat neuronal 4) #2 — TNF reporter z-score, mean: -3.85; gene median z, three same-vendor siRNAs: -3.79; TNF reporter z-score, repeat 1: -4.73; TNF reporter z-score, repeat 2: -2.97; call: active
Lrrn4 (leucine rich repeat neuronal 4) #3 — TNF reporter z-score, mean: -4.68; gene median z, three same-vendor siRNAs: -3.79; TNF reporter z-score, repeat 1: -4.61; TNF reporter z-score, repeat 2: -4.74; call: active
Lrrn4 (leucine rich repeat neuronal 4) #4 — TNF reporter z-score, mean: 2.12; gene median z, three same-vendor siRNAs: -0.434; TNF reporter z-score, repeat 1: 4.48; TNF reporter z-score, repeat 2: -0.241; call: active
Lrrn4 (leucine rich repeat neuronal 4) #5 — TNF reporter z-score, mean: 0.693; gene median z, three same-vendor siRNAs: -0.434; TNF reporter z-score, repeat 1: 2.08; TNF reporter z-score, repeat 2: -0.698; call: inactive

Additional results:
| TNF reporter z-score, mean | gene median z, three same-vendor siRNAs | TNF reporter z-score, repeat 1 | TNF reporter z-score, repeat 2 | call | gene symbol | siRNA no. |
| --- | --- | --- | --- | --- | --- | --- |
| -2.69 | -3.04 | -1.94 | -3.45 | active | Neil3 (nei like 3 (E. coli)) | 1 |
| -3.04 | -3.04 | -3.09 | -3 | active | Neil3 (nei like 3 (E. coli)) | 2 |
| -3.62 | -3.04 | -5.29 | -1.96 | active | Neil3 (nei like 3 (E. coli)) | 3 |
| 2.28 | 0.28 | 3.99 | 0.568 | active | Neil3 (nei like 3 (E. coli)) | 4 |
| 1.07 | 0.28 | 2.16 | -0.00856 | inactive | Neil3 (nei like 3 (E. coli)) | 5 |
| -0.308 | 0.28 | -0.0634 | -0.552 | inactive | Neil3 (nei like 3 (E. coli)) | 6 |
| -0.507 | -2.7 | -0.187 | -0.827 | inactive | S1pr1 (sphingosine-1-phosphate receptor 1) | 1 |
| -2.7 | -2.7 | -2.93 | -2.48 | active | S1pr1 (sphingosine-1-phosphate receptor 1) | 2 |
| -3.98 | -2.7 | -3.28 | -4.67 | active | S1pr1 (sphingosine-1-phosphate receptor 1) | 3 |
| 2.26 | 0.718 | 3.14 | 1.38 | active | S1pr1 (sphingosine-1-phosphate receptor 1) | 4 |
| 0.718 | 0.718 | 1.36 | 0.0728 | inactive | S1pr1 (sphingosine-1-phosphate receptor 1) | 5 |
| -3.27 | 0.718 | -3.46 | -3.08 | active | S1pr1 (sphingosine-1-phosphate receptor 1) | 6 |
| 2.81 | -2.62 | 2.29 | 3.32 | active | Zfp428 (zinc finger protein 428) | 1 |
| -2.66 | -2.62 | -2.96 | -2.37 | active | Zfp428 (zinc finger protein 428) | 2 |
| -3.34 | -2.62 | -3.81 | -2.87 | active | Zfp428 (zinc finger protein 428) | 3 |
| 1.25 | -0.956 | 2.46 | 0.0401 | inactive | Zfp428 (zinc finger protein 428) | 4 |
| -1.12 | -0.956 | -1.61 | -0.63 | inactive | Zfp428 (zinc finger protein 428) | 5 |
| -1.58 | -0.956 | -1.28 | -1.89 | inactive | Zfp428 (zinc finger protein 428) | 6 |
